From the supplement of paper PMC11006884
This is a selection; strong and weak results do not stand in their true shares.

Sequences of proteins named here, by UniProt entry; tags and fusion partners are left off. A change or cut given only in a name is not applied to a line headed by its entry.
UniProt Q13057: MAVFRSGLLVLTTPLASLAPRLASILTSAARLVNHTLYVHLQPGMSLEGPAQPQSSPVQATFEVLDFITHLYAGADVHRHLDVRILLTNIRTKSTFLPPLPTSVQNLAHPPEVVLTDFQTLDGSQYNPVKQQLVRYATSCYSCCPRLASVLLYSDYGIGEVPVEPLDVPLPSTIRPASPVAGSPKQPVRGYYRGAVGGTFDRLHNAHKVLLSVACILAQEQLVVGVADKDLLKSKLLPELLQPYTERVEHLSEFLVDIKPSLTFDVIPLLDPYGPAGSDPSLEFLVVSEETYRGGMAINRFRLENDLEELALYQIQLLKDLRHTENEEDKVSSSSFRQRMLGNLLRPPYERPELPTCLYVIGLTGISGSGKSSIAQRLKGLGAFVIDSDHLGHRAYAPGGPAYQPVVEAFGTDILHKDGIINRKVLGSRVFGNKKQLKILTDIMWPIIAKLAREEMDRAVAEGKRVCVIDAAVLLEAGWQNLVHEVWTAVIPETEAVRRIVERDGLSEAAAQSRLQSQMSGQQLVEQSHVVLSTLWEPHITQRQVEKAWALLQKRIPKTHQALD
UniProt Q13111, whole entry, looked up: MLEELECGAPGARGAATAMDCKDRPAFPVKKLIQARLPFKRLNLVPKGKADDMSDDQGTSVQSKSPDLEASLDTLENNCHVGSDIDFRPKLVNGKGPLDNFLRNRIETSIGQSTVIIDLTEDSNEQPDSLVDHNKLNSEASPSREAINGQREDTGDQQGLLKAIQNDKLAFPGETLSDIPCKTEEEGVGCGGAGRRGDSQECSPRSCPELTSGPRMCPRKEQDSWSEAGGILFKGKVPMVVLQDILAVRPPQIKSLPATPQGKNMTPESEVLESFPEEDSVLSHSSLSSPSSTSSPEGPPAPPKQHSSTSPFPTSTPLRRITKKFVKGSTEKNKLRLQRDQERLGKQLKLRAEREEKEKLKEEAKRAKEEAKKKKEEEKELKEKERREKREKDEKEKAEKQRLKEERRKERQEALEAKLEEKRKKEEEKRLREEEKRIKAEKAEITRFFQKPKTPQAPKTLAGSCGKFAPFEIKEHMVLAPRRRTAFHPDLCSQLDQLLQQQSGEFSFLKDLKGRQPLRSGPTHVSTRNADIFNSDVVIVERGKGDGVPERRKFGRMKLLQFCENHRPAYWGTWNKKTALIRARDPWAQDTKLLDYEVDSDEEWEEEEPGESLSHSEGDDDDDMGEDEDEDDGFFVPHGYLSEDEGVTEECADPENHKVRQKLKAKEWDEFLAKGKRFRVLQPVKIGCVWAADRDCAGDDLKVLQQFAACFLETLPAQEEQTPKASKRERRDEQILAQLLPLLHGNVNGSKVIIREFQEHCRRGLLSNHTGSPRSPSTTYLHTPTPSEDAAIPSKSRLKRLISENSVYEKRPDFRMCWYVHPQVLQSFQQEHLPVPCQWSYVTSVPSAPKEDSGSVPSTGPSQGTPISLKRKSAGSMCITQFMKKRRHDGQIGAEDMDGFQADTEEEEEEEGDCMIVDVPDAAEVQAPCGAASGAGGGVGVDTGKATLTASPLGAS
UniProt Q07866: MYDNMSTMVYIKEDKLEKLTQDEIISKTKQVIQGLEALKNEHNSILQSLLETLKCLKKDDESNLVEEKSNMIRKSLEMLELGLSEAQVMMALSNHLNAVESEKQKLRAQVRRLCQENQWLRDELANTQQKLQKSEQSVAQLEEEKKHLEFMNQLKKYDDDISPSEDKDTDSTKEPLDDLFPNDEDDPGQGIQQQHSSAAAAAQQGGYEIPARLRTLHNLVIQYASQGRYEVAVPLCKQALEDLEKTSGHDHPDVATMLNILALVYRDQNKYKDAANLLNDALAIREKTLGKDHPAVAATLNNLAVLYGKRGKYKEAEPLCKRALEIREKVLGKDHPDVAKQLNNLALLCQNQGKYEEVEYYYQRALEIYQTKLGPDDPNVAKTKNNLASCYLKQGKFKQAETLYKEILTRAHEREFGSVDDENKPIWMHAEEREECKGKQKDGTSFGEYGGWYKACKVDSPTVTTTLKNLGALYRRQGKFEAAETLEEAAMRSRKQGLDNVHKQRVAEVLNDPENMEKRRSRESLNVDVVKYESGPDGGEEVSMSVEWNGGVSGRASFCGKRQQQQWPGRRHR
UniProt Q08170: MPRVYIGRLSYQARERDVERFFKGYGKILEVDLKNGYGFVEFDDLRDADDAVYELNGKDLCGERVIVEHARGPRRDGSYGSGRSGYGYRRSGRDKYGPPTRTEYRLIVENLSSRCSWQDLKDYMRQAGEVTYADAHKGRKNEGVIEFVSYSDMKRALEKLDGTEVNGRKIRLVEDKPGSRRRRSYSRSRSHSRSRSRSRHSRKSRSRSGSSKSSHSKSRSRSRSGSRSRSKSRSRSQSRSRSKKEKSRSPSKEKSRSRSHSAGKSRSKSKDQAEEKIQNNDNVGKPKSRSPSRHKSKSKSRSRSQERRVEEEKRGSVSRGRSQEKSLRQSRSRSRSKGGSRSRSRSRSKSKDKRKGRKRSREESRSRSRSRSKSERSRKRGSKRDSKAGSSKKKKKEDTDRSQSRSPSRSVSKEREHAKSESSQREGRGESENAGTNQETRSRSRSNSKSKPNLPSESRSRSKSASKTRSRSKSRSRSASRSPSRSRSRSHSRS
UniProt Q04637, whole entry, looked up: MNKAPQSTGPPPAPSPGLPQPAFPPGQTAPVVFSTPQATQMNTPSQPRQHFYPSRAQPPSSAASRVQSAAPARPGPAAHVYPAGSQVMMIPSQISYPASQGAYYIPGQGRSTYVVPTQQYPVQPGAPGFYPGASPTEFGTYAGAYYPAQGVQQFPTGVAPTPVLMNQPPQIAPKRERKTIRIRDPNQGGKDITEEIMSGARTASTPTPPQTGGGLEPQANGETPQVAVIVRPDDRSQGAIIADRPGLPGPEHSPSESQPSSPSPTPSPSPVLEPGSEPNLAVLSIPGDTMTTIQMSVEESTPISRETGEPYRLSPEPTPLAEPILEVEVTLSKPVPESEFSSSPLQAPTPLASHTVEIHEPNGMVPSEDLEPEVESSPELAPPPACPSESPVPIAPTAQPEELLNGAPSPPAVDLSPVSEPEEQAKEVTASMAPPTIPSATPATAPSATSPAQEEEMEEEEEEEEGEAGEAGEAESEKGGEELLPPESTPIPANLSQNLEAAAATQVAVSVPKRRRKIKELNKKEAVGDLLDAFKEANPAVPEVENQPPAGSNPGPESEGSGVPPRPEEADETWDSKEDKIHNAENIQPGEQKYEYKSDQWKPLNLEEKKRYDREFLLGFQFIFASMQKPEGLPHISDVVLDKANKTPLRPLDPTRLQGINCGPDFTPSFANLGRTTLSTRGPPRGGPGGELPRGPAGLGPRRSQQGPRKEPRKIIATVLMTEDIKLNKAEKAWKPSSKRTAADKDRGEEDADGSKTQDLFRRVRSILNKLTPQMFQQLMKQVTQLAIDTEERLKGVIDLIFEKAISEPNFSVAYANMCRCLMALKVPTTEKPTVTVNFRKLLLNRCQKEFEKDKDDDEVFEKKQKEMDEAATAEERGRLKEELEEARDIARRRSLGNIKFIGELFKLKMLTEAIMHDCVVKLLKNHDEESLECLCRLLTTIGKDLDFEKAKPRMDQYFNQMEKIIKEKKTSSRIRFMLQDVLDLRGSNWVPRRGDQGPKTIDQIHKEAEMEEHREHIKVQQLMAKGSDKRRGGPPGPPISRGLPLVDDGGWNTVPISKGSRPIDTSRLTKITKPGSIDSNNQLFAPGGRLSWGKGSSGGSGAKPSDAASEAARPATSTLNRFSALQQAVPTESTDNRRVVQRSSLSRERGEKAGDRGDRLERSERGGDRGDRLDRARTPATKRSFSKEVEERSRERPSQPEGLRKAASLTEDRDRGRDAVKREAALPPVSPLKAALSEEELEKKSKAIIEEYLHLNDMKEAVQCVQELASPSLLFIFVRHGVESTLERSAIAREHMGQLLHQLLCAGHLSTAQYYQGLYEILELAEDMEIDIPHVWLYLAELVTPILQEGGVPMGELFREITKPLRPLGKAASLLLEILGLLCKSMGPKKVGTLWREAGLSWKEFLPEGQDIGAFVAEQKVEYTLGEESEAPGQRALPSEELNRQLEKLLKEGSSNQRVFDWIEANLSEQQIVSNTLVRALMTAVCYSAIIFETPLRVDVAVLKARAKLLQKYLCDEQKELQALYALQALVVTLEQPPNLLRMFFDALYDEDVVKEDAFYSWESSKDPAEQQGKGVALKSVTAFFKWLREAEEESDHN
UniProt Q08J23, whole entry, looked up: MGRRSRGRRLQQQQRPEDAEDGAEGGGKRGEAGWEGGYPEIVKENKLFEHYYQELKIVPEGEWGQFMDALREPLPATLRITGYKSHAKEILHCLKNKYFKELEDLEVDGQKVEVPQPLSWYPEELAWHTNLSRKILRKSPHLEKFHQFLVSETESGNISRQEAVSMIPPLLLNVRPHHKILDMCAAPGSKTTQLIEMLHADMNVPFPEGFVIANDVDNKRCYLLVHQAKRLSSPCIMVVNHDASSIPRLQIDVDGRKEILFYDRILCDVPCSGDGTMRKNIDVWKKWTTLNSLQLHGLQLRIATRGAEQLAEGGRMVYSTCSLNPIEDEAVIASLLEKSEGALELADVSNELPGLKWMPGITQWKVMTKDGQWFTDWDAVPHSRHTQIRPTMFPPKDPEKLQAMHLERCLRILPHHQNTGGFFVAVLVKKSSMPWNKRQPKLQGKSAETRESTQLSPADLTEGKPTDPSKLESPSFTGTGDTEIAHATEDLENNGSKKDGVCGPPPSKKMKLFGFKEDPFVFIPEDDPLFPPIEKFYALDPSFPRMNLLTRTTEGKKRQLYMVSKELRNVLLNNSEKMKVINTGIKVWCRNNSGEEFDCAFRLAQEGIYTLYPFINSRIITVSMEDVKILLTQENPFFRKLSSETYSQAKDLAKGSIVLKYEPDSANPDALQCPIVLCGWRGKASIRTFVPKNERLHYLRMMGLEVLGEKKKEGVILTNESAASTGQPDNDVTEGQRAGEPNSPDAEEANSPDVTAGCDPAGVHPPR
UniProt Q05519: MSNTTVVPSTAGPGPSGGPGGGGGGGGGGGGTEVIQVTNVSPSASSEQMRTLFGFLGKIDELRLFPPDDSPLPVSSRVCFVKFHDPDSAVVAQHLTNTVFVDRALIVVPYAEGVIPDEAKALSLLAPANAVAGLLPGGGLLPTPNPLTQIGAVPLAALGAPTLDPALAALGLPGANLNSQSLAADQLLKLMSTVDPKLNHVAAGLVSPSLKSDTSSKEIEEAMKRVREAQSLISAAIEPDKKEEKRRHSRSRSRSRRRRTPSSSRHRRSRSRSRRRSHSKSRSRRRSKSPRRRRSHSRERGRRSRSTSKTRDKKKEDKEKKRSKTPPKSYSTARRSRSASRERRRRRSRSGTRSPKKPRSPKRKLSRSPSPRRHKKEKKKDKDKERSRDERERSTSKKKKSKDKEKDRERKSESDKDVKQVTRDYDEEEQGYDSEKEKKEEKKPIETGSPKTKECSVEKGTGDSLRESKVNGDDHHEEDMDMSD
UniProt Q02930: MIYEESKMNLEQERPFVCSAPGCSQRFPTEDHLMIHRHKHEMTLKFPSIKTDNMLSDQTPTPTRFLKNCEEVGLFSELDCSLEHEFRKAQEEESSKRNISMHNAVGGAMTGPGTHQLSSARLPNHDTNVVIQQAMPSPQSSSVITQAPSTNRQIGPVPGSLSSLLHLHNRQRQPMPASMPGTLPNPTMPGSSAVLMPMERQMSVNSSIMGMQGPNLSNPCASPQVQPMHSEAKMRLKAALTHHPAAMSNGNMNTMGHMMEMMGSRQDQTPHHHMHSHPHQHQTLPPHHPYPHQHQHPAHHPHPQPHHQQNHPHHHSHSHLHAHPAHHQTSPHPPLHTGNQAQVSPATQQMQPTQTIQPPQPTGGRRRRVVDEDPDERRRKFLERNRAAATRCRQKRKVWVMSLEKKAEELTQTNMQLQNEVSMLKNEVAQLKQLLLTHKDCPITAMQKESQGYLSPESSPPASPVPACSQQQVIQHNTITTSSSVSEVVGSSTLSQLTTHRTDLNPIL
UniProt Q10471: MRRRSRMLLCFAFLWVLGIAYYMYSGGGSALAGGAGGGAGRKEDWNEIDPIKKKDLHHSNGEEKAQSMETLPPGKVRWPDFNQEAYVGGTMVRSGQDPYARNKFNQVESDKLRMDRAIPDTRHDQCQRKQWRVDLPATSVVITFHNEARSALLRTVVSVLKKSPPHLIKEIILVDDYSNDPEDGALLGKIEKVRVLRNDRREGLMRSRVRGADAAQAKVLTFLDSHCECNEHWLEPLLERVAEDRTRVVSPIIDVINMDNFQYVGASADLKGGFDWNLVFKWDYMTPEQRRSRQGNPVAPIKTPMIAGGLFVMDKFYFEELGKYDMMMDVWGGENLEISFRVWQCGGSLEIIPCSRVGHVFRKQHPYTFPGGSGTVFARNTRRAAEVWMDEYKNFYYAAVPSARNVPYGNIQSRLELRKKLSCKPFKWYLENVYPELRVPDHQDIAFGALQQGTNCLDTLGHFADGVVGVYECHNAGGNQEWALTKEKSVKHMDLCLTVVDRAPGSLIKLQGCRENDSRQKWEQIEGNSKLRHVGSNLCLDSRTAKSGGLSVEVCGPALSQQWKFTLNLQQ

What follows are targets tested with COC(=O)C#Cc1ccccc1 [methyl 3-phenylpropiolate] (assay: log2 ratio of iodoacetamide-alkyne labeling of the cysteine site, DMSO over compound (competition); higher = stronger covalent engagement of the cysteine by the compound, active = 1 or more). Conditions: 500 µM; treatment time 1 h; system: HEK293T cell lysate.
How it was run: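 HEK293T lysate at 2 mg/mL was treated with vehicle or electrophile (500 µM) for 1 h at ambient temperature, then labelled with iodoacetamide alkyne (1 h), clicked to sCIP-TMT reagents, pooled, digested with trypsin overnight at 37 °C, enriched on streptavidin and eluted with acid. Peptides were analysed by Orbitrap Eclipse LC-MS/MS with FAIMS and quantified in FragPipe, using duplicate channels and three replicates, with cysteines quantified in only one replicate excluded. The log2 competition ratio for each cysteine is the mean control-channel reporter intensity divided by the mean compound-channel reporter intensity.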
In the case of SF3A3 C274 (UniProt Q12874), the “log2 ratio of iodoacetamide-alkyne labeling” value (“log2 ratio” below) is reported as inactive: -0.0195.
UniProt Q09028_C138 was tested, and the “log2 ratio” value was inactive: 0.334.
For RING1 C69 (UniProt Q06587), the “log2 ratio” value was inactive: 0.171.
COASY C140 (UniProt Q13057) was tested, and the “log2 ratio” value was active: 1.16.
In the case of PTPN11 C567 (UniProt Q06124), the “log2 ratio” value is reported as inactive: 0.725.
PLOD1 C267 (UniProt Q02809) was tested, and the “log2 ratio” value was inactive: 0.27.
For STX5 C68 (UniProt Q13190), the “log2 ratio” value was inactive: 0.4.
For DST C4370 (UniProt Q03001), the “log2 ratio” value was inactive: 0.151.
In the case of TLE1 C526 (UniProt Q04724), the “log2 ratio” value is reported as active: 1.15.
RELA C109 (UniProt Q04206) was tested, and the “log2 ratio” value was inactive: 0.332.
TBL3 C613 (UniProt Q12788) was tested, and the “log2 ratio” value was inactive: 0.77.
ROCK1 C1300 (UniProt Q13464) was tested, and the “log2 ratio” value was inactive: 0.212.
With UniProt Q13242_C80 the “log2 ratio” value was inactive: -0.0295.
For PPIG C10 (UniProt Q13427), the “log2 ratio” value was inactive: 0.0648.
CHAF1A C21 (UniProt Q13111) was tested, and the “log2 ratio” value was inactive: 0.878.
In the case of AHNAK C108 (UniProt Q09666), the “log2 ratio” value is reported as inactive: 0.642.
With PDCL C35 (UniProt Q13371) the “log2 ratio” value was inactive: -0.0134.
KLC1 C456 (UniProt Q07866) was tested, and the “log2 ratio” value was inactive: 0.813.
With SCRN3 C102 (UniProt Q0VDG4) the “log2 ratio” value was inactive: 0.169.
AKAP12 C1479 (UniProt Q02952) was tested, and the “log2 ratio” value was inactive: 0.264.
For SSRP1 C200 (UniProt Q08945), the “log2 ratio” value was inactive: 0.665.
For UniProt Q12824_C350, the “log2 ratio” value was inactive: 0.273.
UniProt Q08170_C115 was tested, and the “log2 ratio” value was inactive: -0.0754.
With EIF4G1 C934 (UniProt Q04637) the “log2 ratio” value was inactive: 0.131.
With NSUN2 C502 (UniProt Q08J23) the “log2 ratio” value was inactive: 0.126.
With CTBP1 C312 (UniProt Q13363) the “log2 ratio” value was inactive: 0.128.
For UniProt Q05519_C455, the “log2 ratio” value was inactive: 0.238.
In the case of GTF3C1 C1981 (UniProt Q12789), the “log2 ratio” value is reported as inactive: 0.746.
AHNAK C1833 (UniProt Q09666) was tested, and the “log2 ratio” value was inactive: 0.311.
In the case of TRAP1 C573 (UniProt Q12931), the “log2 ratio” value is reported as inactive: 0.154.
LGALS3BP C489 (UniProt Q08380) was tested, and the “log2 ratio” value was active: 1.72.
In the case of UniProt Q02930_C69, the “log2 ratio” value is reported as active: 1.09.
For DHX9 C242 (UniProt Q08211), the “log2 ratio” value was inactive: -0.0869.
For CSTF3 C176 (UniProt Q12996), the “log2 ratio” value was inactive: -0.0873.
With GALNT2 C229 (UniProt Q10471) the “log2 ratio” value was inactive: 0.0139.
In the case of AKAP12 C684 (UniProt Q02952), the “log2 ratio” value is reported as inactive: 0.0232.
For FLII C1265 (UniProt Q13045), the “log2 ratio” value was inactive: 0.31.
With TARDBP C244 (UniProt Q13148) the “log2 ratio” value was inactive: 0.441.
